Targets (5′ to 3′):
TPP: TPP riboswitch RNA three-way junction, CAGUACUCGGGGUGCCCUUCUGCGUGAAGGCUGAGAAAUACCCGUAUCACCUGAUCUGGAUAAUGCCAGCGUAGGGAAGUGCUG. About 24,000 compounds screened, about 160 hits.
SAM-II: SAM-II riboswitch RNA pseudoknot, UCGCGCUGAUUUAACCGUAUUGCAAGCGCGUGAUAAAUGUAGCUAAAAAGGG. About 21,000 compounds screened, about 200 hits.
PreQ1: PreQ1 riboswitch RNA pseudoknot, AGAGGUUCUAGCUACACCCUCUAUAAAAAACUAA. From B. subtilis. About 24,000 compounds screened, about 170 hits.

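Each compound is printed as two spots on a slide made to bind it covalently, so it has no test concentration; the read-out is fluorescence of the bound, labelled oligonucleotide. The data file lists only calls. An earlier report of the laboratory on the PreQ1, TPP and SAM-II riboswitches (doi:10.1038/s41467-019-09493-3) used 1 µM RNA for 2 h and required a mean Z-score above 3 (spot signal-to-noise against the whole library), a score well above that on a control array, and duplicate spots agreeing (coefficient of variation under 100); it then also set aside compounds that hit other targets, which this list keeps. The cut-offs behind this list may differ. The calls come from the array alone, and fixing a compound to the slide can hide its binding.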 Key: hit = hit, no hit = tested without a hit. This is an unselected part of the compounds tested. A target missing from an entry has no call listed here. A dash means that no call is listed here.

SMILES	TPP	SAM-II	PreQ1
Cc1ccc(C)c(S(=O)(=O)NC[C@@H]2C[C@H](F)CN2)c1	no hit	no hit	no hit
C[C@@H]1CN(C[C@@H]2CN(Cc3cccc(-n4cccn4)c3)C[C@@H]2CO)C[C@H](C)O1	no hit	no hit	no hit
Cc1ccc(C(C)C)c(OCC(O)CN2CCC(C)CC2)c1.Cl (stereo unspecified)	no hit	no hit	no hit
CCCCc1c(C)nc(N)nc1N1CCN(c2ncccc2C(N)=O)CC1	no hit	no hit	no hit
O=C(Nc1ccc(Oc2ccc(NC(=O)Nc3ccc([N+](=O)[O-])cc3)cc2)cc1)Nc1ccc([N+](=O)[O-])cc1	hit	no hit	no hit
CC(C)(C)n1nc(-c2ccco2)nc1CC1COCCN1 (stereo unspecified)	no hit	no hit	no hit
Cc1ccc(NCCC(=O)c2ccc(Cl)cc2)cc1	no hit	no hit	no hit
C=CCN1CC(c2nc3ccccc3n2CC(O)COc2ccc(Cl)c(C)c2)CC1=O (stereo unspecified)	no hit	-	no hit
Cn1ncc(CN2CCC3(CCCN(CCO)C3=O)C2)c1C1CC1 (stereo unspecified)	no hit	no hit	no hit
CC(C)OC(=O)C1=C(N)Oc2c(oc(CO)cc2=O)C1c1ccc(F)c(F)c1 (stereo unspecified)	no hit	no hit	no hit
Cc1ccc(NC(=O)Cn2nnc(C(=O)Nc3cc(Cl)ccc3C)c2N)c(C)c1	no hit	no hit	no hit
CC(C)C(CO)NC(=O)Oc1ccccc1 (stereo unspecified)	no hit	no hit	no hit
CC(C)N(C(=O)Cn1c(CCCO)nc2ccccc21)c1ccccc1	no hit	no hit	no hit
CCOC(=O)c1cnc2c(C)cc(Cl)cc2c1NC1CCCCC1	no hit	no hit	no hit
O=C(NCCO)c1cc2n(n1)CCN(c1cc(N3CCCCC3)ncn1)C2	no hit	no hit	no hit
CCCCOc1ccc(OC(=O)Nc2cc(Cl)ccc2OC)cc1	hit	hit	hit
Cc1cccc(N2CCC(NCCc3nc(-c4cccnc4)n[nH]3)CC2)c1C	no hit	no hit	no hit
COc1ccccc1C1C(C#N)=C(N)Oc2[nH]nc(C(F)(F)F)c21 (stereo unspecified)	no hit	no hit	no hit
COc1cc(C=C2C(=O)NC(=O)NC2=O)ccc1O	no hit	no hit	no hit
S=c1[nH]cc2cnccn12	no hit	no hit	no hit
C[C@@H]1CN(C[C@@H]2CN(c3ccccn3)C[C@@H]2CO)C[C@H](C)O1	no hit	no hit	no hit
Cc1cnccc1N1CCCN(C(=O)C(N)c2c(C)n[nH]c2C)CC1 (stereo unspecified)	no hit	no hit	no hit
Cc1cnc(C)c(N2CCCC(CO)(Cc3cccc(Cl)c3)C2)n1 (stereo unspecified)	no hit	no hit	no hit
CSc1nc2c(c(Nc3ccc(C(=O)OC(C)C)cc3)n1)CCC2	no hit	-	no hit
Nc1cc(Oc2ccc(O)c(N)c2)ccc1O	no hit	no hit	no hit
O=C(c1cc(-c2ccccc2)nc2ccccc12)N1CCOCC(CO)C1 (stereo unspecified)	no hit	no hit	no hit
O=C1c2ccccc2C(Nc2ccc(S(=O)(=O)N3CCCCC3)cc2)N1c1ccccn1 (stereo unspecified)	no hit	no hit	no hit
CC(=O)c1ccc(Nc2cc(C)nc3nc(Cc4ccc(Cl)cc4)nn23)cc1	no hit	-	no hit
CC(c1ccccc1)C1C(C#N)=C(N)Oc2c1c(=O)oc1ccccc21 (stereo unspecified)	no hit	no hit	no hit
CSCCC(CO)NC(=O)OCc1ccccc1 (stereo unspecified)	no hit	no hit	no hit
Nc1c(C(=O)Nc2cccc(F)c2)sc2nc3c(c(-c4ccco4)c12)CCCC3	no hit	no hit	no hit
CC(C)CNc1nc2c(c(=O)n(C)c(=O)n2C)n1Cc1c(F)cccc1Cl	no hit	no hit	no hit
Cn1nc(-c2ccc(F)cc2)cc1N	no hit	no hit	no hit
O=C(Nc1cccc(Cn2cncn2)c1)N1CCN[C@H]2CS(=O)(=O)C[C@H]21	no hit	no hit	no hit
CC(C)n1cnc2cc(NCc3ccc(Cl)cc3)ccc21	no hit	no hit	no hit
Cc1nnc2c3ccccc3nc(Nc3ccccc3Cl)n12	no hit	-	no hit
Nc1c(C(=O)NCc2ccccc2Cl)nnn1Cc1ccc(F)cc1	no hit	no hit	no hit
Cc1ccc(CCC(=O)N2CCOC3(CNCCOC3)C2)cc1C (stereo unspecified)	no hit	no hit	no hit
CC(=O)Oc1c(C)c(OC(C)=O)c2c(c1C(C)=O)OC1CC(=O)C(C(C)=O)=C(O)C21C (stereo unspecified)	no hit	no hit	no hit
COc1ccc(C=Cc2nc(C#N)c(NCc3ccco3)o2)cc1OC	no hit	-	no hit
Cc1cccc(N2C(=O)CC(NC3CCCCC3)C2=O)c1 (stereo unspecified)	no hit	no hit	no hit
OCCOc1ccc(C2=NCCO2)cc1	no hit	no hit	no hit
Oc1cccc(Nc2nc(-c3ccncc3)cs2)c1	no hit	no hit	no hit
COC(=O)c1[nH]c2ccccc2c1NCc1cccnc1	no hit	no hit	no hit
CCCOC(=O)c1c(-c2ccc(OC)c(OC)c2)csc1N	no hit	no hit	no hit
COCCCNc1nc2c(c(=O)n(C)c(=O)n2C)n1Cc1ccc(F)cc1	no hit	no hit	no hit
CCOC(=O)c1ccc2nc(C(F)(F)F)nc(NCCc3ccc(OC)cc3)c2c1	no hit	no hit	no hit
O=C(CN1CCOC1=O)N1CC[C@@H](c2ccc3c(c2)OCO3)[C@H](O)C1	no hit	no hit	no hit

Some entries from above, unchanged:

* COc1ccccc1C1C(C#N)=C(N)Oc2[nH]nc(C(F)(F)F)c21 (stereo unspecified) : TPP: no hit; SAM-II: no hit; PreQ1: no hit
* C[C@@H]1CN(C[C@@H]2CN(c3ccccn3)C[C@@H]2CO)C[C@H](C)O1 : TPP: no hit; SAM-II: no hit; PreQ1: no hit
* C[C@@H]1CN(C[C@@H]2CN(Cc3cccc(-n4cccn4)c3)C[C@@H]2CO)C[C@H](C)O1 : TPP: no hit; SAM-II: no hit; PreQ1: no hit
* O=C(Nc1cccc(Cn2cncn2)c1)N1CCN[C@H]2CS(=O)(=O)C[C@H]21 : TPP: no hit; SAM-II: no hit; PreQ1: no hit
* Cc1cnccc1N1CCCN(C(=O)C(N)c2c(C)n[nH]c2C)CC1 (stereo unspecified) : TPP: no hit; SAM-II: no hit; PreQ1: no hit
* CC(C)CNc1nc2c(c(=O)n(C)c(=O)n2C)n1Cc1c(F)cccc1Cl : TPP: no hit; SAM-II: no hit; PreQ1: no hit

From ROBIN, a set of small-molecule microarray screens (doi:10.1002/anie.202211358).